In paper doi:10.1101/2024.09.16.613291 one finds binding data, which are given here for two molecules.

The target of test [1] is B55 subunit of the purified PP2A:B55 holoenzyme. Put plainly: cryo-EM structure.
Test [2] concerns the target B55 loop-less (B55LL), residues 126-164 replaced with NG. Put plainly: NMR titration.

Results are given in words; binding and its absence hold for the method and conditions named. Binding calls can cover weak binding; strength is not graded here.

As for RSSNDYTSQMYSAKPYAHILSVPVSETAYPGQTQYQTLQQTQPYAVYEE (domain or fragment, UniProt Q99504 62-108) [Eya3 PP2A:B55 interaction domain (aa 62-108) with C-terminal EE], the binding entry in test [1] and in test [2] was “binds” throughout.

B1: p107 interdomain region (residues 612-687) (domain or fragment, UniProt P28749 612-687)
chain: MPMSPLMHPRVKEVRTDSGSLRRDMQPLSPISVHERYSSPTAGSAKRRLFGEDPPKEMLMDKIITEGTKLKIAPSS
For the molecule B1, the binding result in test [1] and in test [2] was “binds” in each case.
